Measurements published in PMC5946489, “Inactivation of the tight junction gene CLDN11 by aberrant hypermethylation modulates tubulins polymerization and promotes cell migration in nasopharyngeal carcinoma”.

Chains of the proteins cited; added tags and fusions are not shown.
UniProt P68363: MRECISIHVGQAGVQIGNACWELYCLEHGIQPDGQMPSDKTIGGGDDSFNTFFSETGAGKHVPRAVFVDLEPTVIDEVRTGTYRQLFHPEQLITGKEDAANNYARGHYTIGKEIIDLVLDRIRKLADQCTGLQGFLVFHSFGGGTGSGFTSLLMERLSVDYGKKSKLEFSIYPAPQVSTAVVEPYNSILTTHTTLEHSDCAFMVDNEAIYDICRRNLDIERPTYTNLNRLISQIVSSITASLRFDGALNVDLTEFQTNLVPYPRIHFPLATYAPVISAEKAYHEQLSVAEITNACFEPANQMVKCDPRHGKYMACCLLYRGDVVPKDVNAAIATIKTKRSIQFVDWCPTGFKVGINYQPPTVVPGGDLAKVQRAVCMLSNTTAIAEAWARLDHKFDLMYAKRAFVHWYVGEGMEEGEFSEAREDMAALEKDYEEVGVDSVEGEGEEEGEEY
UniProt Q13509: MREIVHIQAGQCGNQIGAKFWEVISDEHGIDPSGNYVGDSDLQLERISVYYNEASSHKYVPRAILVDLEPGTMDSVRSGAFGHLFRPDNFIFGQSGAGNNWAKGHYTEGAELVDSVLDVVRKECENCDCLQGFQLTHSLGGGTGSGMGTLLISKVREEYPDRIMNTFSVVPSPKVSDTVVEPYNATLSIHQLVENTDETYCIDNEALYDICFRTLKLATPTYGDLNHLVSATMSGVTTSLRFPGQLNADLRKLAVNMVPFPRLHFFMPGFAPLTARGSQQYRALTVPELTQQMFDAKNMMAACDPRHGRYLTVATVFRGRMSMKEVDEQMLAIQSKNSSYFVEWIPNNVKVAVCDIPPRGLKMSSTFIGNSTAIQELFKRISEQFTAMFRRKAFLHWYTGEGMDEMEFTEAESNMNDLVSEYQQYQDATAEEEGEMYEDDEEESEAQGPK

Biological target: T1, FLAG-tagged CLDN11-3F (claudin 11) (human) (UniProt O75508)
T1 sequence: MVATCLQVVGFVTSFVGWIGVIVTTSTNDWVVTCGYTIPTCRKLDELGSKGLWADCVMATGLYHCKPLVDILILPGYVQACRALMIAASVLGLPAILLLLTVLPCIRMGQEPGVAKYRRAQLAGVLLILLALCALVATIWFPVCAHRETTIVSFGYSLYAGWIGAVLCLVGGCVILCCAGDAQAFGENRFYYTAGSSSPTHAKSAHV
Assay: affinity purification with mass spectrometry; TW02 cells transfected with FLAG-tagged CLDN11 or vector control, harvested after 48 h; cell extracts precipitated with FLAG M2 beads; SDS-PAGE lanes sliced, trypsin-digested, LC-MS/MS with spectral counting

Substance	binding
tubulin alpha-1B (TUBA1B) (from UniProt P68363 1-451)	binds
tubulin beta-3 (TUBB3) (from UniProt Q13509 1-450)	binds

No constants are given. Whether binding was seen depends on the method and setting. In cells and extracts the contact can be indirect. These calls come from enrichment with a bait or labelling near it, and not all partners need be listed. Tags and fused reporters may be left off the sequences shown.
